Hit rate of the full screen: of about 410,000 compounds, about 18,000 (4.4%) were called active. The shares of active, inactive and inconclusive entries below differ from those in the screen. Rule as the data show it: active = activity change below about -60%; inconclusive = no clear call, values can overlap the other calls; inactive = above about -39%. Where a SMILES comes first, the peptide text is derived from it. The star is where a group is joined. Cbz = O=C(OCc1ccccc1)*
Experiment: qHTS Assay for inhibitors of the human cytomegalovirus (HCMV)
Details: HFF cells, HCMV-luciferase reporter, 72 h; at 57.5 µM; hits give low values
Summary of the method: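 Two compound doses tested in HFFs infected with HCMV-luciferase, MOI 1 PFU/cell, 72 h at 37C. Lysate luminescence read with OneGlo; data normalized against buffer-only and 10uM Salinomycin inhibitor controls.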
% is scaled to controls: 0 for no effect and ±100 for the full control effect.

Row | Compound | activity change, negative = inhibition
1 | Cc1ccc(C(=O)NCCC(C)C)cc1NC(=O)c1nsc2ccccc12 | inactive: -8.93%
2 | CCN(CC)c1ccc(NC(=O)Cn2c3ncccc3c(=O)n2-c2ccccc2)c(C)c1 | inactive: -11.6%
3 | CCCCCCn1c(=O)c(C(=O)Nc2ncccc2O)c(O)c2ccccc21 | active: -73%
4 | COc1cccc2cc(C(=O)NCc3ccc(C)cc3)c(=N)oc12 | inactive: -3.52%
5 | Cc1ccc(CNC(=O)Cn2cc3c(n2)-c2c(oc(C(=O)N4CCOCC4)c2C)CC3)cc1 | inconclusive: -40.4%
6 | COc1ccc(-n2nnnc2C(c2cc3ccccc3o2)N2CCN(C/C=C/c3ccccc3)CC2)cc1 (centres undefined) | inactive: 13.2%
7 | COc1ccccc1CCNCc1ccc(OC)c(OCc2ccccc2)c1 | inconclusive: -48.3%
8 | Cc1nc2oc3c(=O)[nH]cnc3c2c2c1COC(C)(C)C2 | inconclusive: -41.4%
9 | N#Cc1c(NCc2ccccc2)ccnc1NCc1cccnc1 | active: -80.2%
10 | CCCCCCCCSC1=CC(=O)C(OC)=C(OC)C1=O | active: -87.3%
11 | CCC(C)C(NC(=O)C(Cc1ccc(O)cc1)NC(=O)OCc1ccccc1)C(=O)OC (stereo not drawn) (Cbz-Tyr-Ile-OMe; configuration not given here) | inconclusive: -48.6%
12 | Cc1csc(SCC(=O)NCCc2ccc(Cl)cc2)n1 | inconclusive: -43.1%
13 | CCC(C)NC(=O)Nc1ccc(Br)cc1Cl (centres undefined) | inconclusive: -54.5%
14 | Cc1c(-c2ccc(Cl)cc2)oc(=O)c2c(N)n(-c3ccccc3)nc12 | inactive: -26.9%
15 | O=C(CN1C(=O)/C(=C\c2cccs2)SC1=S)Nc1cccc(C(=O)O)c1 | inconclusive: -46.6%
16 | COc1ccc(C(=O)Nc2nc(-c3nnn(-c4ccc(F)cc4F)c3C)ns2)cc1 | active: -104%
17 | CCc1ccc(NC(=O)CCS(=O)(=O)c2ccc(Br)cc2)cc1 | active: -62.4%
18 | O=C(CN1CCN(C(=O)N2CCOCC2)CC1)Nc1ccc(Br)cc1 | inactive: -7.51%
19 | CC(C)c1nc2ccc(C(=O)NCCCN3CCN(c4ccccc4)CC3)cc2o1 | inconclusive: -43.2%
20 | COc1ccc(S(=O)(=O)N2CCOCC2)cc1C(=O)Nc1ccc2c(c1)OCO2 | inactive: 4.37%
21 | COc1cccc(-c2cc3nc(NCCN4CCCC4)n(C)c(=O)c3s2)c1 | inactive: 17.3%
22 | CCOc1ccc(C(=O)Nc2ccc3oc(-c4cccc5ccccc45)nc3c2)cc1 | inconclusive: -41.3%
23 | CC(=O)c1cc2c(cc1NC(=O)CN1Cc3ccccc3C1=O)OCO2 | inconclusive: -47.6%
24 | CC(C)C[C@H](NC(=O)c1nc[nH]c1C(=O)NC1CCNCC1)C(=O)OCc1ccccc1 | inactive: 1.64%
25 | CCc1cccc(NC(=O)CCc2c(C)nn(-c3ccc(N4CCCCC4)nn3)c2C)c1 | inconclusive: -47.3%
26 | Cc1ccc(NC(=O)CSc2nc3c(cc2C#N)C(=O)CCC3)cc1S(=O)(=O)N(C)C | active: -69.2%
27 | O=C(NNC(=O)C1CC=CCC1C(=O)O)c1cccs1 (centres undefined) | inconclusive: -40.8%

Copied from above: compounds 10–13
Row | Compound | activity change, negative = inhibition
10 | CCCCCCCCSC1=CC(=O)C(OC)=C(OC)C1=O | active: -87.3%
11 | CCC(C)C(NC(=O)C(Cc1ccc(O)cc1)NC(=O)OCc1ccccc1)C(=O)OC (stereo not drawn) (Cbz-Tyr-Ile-OMe; configuration not given here) | inconclusive: -48.6%
12 | Cc1csc(SCC(=O)NCCc2ccc(Cl)cc2)n1 | inconclusive: -43.1%
13 | CCC(C)NC(=O)Nc1ccc(Br)cc1Cl (centres undefined) | inconclusive: -54.5%

Carrying on:

Row | Compound | activity change, negative = inhibition
28 | COc1ccc(NS(=O)(=O)c2cccc(NC(=O)CCC(=O)c3cccs3)c2)cc1 | inactive: -33.8%
29 | Cc1ccc(C(=O)N[C@H](C(=O)OCc2cc(=O)oc3cc(C)ccc23)C(C)C)cc1 | inconclusive: -44.6%
30 | CCOc1cc(NC(=S)Nc2ccccc2)c(OCC)cc1NC(=O)c1ccc(OC)cc1 | active: -66.5%
31 | Cc1ccc2nc(NC(=O)CNS(=O)(=O)c3ccc(Br)s3)sc2c1 | inactive: 13.6%
32 | CCc1ccc(NS(=O)(=O)c2c(C(=O)N3CCCCCC3)c(C)n(C)c2C)cc1 | inconclusive: -42.1%
33 | O=C(Nc1cnn(Cc2ccc(F)cc2)c1)c1noc2c1CCCC2 | inactive: 11.2%
34 | O=C(NCc1ccc2c(c1)OCO2)c1nc(S(=O)(=O)Cc2ccccc2)ncc1Cl | active: -103%
35 | COc1ccc(CCNC(=O)C(=O)NCC2CCCO2)cc1 (centres undefined) | inactive: 1.08%
36 | CCOC1=C2[C@H](c3ccccc3)N(S(=O)(=O)c3ccc(C)cc3)[C@H](C(C)C)[C@H]2C(C#N)(C#N)C(C#N)(C#N)C1 | active: -76.4%
37 | COc1ccc(C2(CNC(=O)C(=O)Nc3cccc(C(F)(F)F)c3)CCCC2)cc1OC | inactive: -10.3%
38 | CC(C)N(C(=NCc1ccccc1)NC(=O)c1ccccc1)C(C)C | active: -88.7%
39 | Cc1cc(CNC(=O)CCc2nnc(CCCCc3ccccc3)o2)nn1C | inconclusive: -45.8%
40 | CCOc1ccc(Br)cc1S(=O)(=O)N1CCC(C(N)=O)CC1 | active: -64.2%
41 | CCOC(=O)C(C)Sc1nnc2ccc3ccccc3n12 (centres undefined) | active: -86%
42 | O=C(Nc1ccn(Cc2ccccc2)n1)c1ccc2c(c1)OCO2 | inactive: 24.9%
43 | Cc1ccnc2nc(C(=O)OCCOc3ccccc3)nn12 | inconclusive: -45.2%
44 | Cc1n[nH]c(C)c1NC(=O)CN1CCN(S(=O)(=O)c2ccc(C(F)(F)F)cc2)CC1 | inconclusive: -46%
45 | CCN1C(=O)C(O)(CC(=O)C(C)(C)C)c2cc(Br)ccc21 (centres undefined) | inconclusive: -42.6%
46 | CC1CCN(CCCNC(=O)c2cc3c(s2)-c2ccccc2OC3)CC1 | inactive: -18.3%
47 | CCC(NC(=O)c1cc(COc2ccc(C)nc2)on1)c1ccc(C)cc1 (centres undefined) | inconclusive: -50.9%
48 | Cn1c(=O)c2c(nc(OCCc3ccccc3)n2C)n(C)c1=O | inconclusive: -47.7%
49 | Cc1ccc(-c2cnc(NCc3cc4c(cc3[N+](=O)[O-])OCO4)n2C)cc1C | inconclusive: -40.9%
50 | O=C(NC1CCCCC1)C(c1ccncc1)N(Cc1ccc2c(c1)OCO2)C(=O)C(F)(F)F (centres undefined) | inactive: 8.11%
51 | COc1ccc(N2CCN(C(=O)c3cc4c(=O)n(Cc5ccccc5)ccc4nc3C)CC2)cc1 | inconclusive: -47.3%
52 | O=C(O)c1ccc(-n2cccn2)nc1 | inconclusive: -46.4%
53 | O=C1CCCN1CCCNc1nc(NCc2ccccc2)nc2ccsc12 | inconclusive: -52.5%
54 | CN1OC[C@@H]2CN(S(=O)(=O)c3cccc(C(F)(F)F)c3)[C@H](c3ccc(-c4cc5ccccc5o4)cc3)C[C@@H]21 | active: -67.9%

Reference: PubChem BioAssay AID1259415 (National Center for Advancing Translational Sciences (NCATS), 2018)
